Source: paper PMC3630842

The chains behind the UniProt entries cited, without tags or fusion partners. Where a name states a change or a piece, a line headed by the entry shows the natural chain unless it says otherwise. A line that says so, or that is headed by a name, gives the form on record, which may keep a tag or linker. Residues count along the entry.
D1080N interphotoreceptor retinoid-binding protein (D1080N IRBP) (P10745, form named): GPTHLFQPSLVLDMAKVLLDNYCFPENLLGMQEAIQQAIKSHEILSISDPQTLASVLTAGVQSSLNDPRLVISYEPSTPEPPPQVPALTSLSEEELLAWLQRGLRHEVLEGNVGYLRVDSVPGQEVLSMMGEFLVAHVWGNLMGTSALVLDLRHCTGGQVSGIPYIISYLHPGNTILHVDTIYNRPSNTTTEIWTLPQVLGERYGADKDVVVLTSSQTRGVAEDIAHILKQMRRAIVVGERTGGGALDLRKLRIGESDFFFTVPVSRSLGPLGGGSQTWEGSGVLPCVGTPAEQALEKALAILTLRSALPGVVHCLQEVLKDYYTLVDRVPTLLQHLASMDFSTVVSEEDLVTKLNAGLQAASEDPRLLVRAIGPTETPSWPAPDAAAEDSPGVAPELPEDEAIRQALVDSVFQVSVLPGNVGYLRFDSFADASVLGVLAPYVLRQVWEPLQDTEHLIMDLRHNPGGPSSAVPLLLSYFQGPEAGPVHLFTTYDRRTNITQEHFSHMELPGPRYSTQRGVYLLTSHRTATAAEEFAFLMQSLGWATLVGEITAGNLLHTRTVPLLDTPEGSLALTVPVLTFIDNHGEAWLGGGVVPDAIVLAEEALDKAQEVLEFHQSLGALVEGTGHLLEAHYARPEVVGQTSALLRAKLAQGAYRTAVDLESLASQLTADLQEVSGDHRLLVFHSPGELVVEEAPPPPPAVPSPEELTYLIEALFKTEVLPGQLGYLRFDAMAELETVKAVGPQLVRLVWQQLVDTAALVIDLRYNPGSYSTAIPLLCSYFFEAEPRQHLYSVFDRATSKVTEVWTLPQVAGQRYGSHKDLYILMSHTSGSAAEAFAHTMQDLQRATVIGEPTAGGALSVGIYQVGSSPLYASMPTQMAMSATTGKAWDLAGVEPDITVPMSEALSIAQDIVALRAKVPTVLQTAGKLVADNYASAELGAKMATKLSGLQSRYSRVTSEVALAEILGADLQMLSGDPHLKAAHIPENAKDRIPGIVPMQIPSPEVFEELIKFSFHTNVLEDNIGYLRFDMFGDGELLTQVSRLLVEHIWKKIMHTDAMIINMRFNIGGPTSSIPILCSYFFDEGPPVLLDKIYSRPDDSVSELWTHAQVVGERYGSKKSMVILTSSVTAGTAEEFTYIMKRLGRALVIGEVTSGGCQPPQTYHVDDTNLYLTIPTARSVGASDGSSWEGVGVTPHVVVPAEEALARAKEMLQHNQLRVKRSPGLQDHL
UniProt P10809, residues 27-573: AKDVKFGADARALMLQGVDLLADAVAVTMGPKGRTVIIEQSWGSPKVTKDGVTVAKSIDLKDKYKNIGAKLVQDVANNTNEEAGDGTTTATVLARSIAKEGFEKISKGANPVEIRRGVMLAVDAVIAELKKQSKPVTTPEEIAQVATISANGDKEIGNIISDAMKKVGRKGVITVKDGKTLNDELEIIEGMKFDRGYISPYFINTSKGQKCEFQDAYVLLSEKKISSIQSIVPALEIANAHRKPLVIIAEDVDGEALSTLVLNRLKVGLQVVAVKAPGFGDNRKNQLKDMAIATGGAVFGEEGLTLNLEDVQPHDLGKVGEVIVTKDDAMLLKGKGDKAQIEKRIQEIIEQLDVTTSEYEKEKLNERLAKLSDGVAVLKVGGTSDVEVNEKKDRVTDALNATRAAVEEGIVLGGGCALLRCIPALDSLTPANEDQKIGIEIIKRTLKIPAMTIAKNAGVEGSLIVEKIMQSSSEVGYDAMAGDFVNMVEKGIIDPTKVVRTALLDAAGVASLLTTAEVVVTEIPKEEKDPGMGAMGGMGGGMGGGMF
UniProt P0DMV8: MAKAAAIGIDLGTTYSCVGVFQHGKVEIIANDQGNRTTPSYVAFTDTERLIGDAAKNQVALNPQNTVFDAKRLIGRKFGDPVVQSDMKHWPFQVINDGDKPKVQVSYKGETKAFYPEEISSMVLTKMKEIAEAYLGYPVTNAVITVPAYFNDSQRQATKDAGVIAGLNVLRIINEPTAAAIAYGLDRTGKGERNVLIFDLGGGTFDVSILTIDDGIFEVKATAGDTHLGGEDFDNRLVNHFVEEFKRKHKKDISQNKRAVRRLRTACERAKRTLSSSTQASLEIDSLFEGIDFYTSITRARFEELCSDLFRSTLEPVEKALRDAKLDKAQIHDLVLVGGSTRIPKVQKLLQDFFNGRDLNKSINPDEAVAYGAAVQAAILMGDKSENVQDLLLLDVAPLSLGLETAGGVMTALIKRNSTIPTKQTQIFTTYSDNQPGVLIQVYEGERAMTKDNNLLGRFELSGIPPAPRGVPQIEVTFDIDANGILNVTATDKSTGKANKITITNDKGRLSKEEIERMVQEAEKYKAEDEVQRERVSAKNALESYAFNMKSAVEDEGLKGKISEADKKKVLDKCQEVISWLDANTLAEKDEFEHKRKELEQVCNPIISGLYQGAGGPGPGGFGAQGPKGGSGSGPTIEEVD
UniProt P14625, residues 22-803: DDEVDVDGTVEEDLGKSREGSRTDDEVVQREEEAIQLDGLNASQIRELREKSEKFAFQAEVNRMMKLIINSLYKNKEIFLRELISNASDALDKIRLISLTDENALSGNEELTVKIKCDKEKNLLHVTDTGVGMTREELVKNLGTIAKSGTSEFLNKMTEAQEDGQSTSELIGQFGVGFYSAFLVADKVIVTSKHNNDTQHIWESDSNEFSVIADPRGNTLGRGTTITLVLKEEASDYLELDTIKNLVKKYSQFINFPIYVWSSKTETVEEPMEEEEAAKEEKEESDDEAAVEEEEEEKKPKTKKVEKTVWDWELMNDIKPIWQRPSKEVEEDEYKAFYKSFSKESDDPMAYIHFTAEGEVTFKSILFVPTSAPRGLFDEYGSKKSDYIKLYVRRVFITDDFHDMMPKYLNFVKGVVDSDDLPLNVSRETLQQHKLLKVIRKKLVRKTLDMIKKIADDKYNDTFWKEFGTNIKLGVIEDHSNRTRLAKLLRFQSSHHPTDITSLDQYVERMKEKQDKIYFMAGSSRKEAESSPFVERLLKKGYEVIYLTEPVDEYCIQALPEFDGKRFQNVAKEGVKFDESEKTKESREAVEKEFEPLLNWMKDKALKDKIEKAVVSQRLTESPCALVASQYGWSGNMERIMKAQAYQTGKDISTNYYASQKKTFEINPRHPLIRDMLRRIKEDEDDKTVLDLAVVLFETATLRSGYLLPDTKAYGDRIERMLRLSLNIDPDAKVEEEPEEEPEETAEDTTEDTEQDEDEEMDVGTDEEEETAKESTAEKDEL

molecular target: D1080N interphotoreceptor retinoid-binding protein (D1080N IRBP) (human) (UniProt P10745); assay: affinity purification with mass spectrometry; 293T-LC cells expressing WT or D1080N IRBP; immunoprecipitation with an IRBP antibody, 10% SDS-PAGE, Coomassie-stained bands digested with trypsin and identified by LC-MS (Mascot, human SwissProt)

binding	Substance
binds	HSP60/chaperonin (from UniProt P10809 27-573)
binds	HSP70-1A (from UniProt P0DMV8 1-641)
binds	HSP-90β1/94-kDa glucose-regulated protein (Grp94) (from UniProt P14625 22-803)

Results are given in words; binding and its absence hold for the method and conditions named. In cells and extracts the contact can be indirect. A yes stands for co-enrichment or nearness to the bait. Other partners may have been found.
